# According to paper PMC9112552:
# The chains behind the UniProt entries cited, without tags or fusion partners.
# UniProt O88275: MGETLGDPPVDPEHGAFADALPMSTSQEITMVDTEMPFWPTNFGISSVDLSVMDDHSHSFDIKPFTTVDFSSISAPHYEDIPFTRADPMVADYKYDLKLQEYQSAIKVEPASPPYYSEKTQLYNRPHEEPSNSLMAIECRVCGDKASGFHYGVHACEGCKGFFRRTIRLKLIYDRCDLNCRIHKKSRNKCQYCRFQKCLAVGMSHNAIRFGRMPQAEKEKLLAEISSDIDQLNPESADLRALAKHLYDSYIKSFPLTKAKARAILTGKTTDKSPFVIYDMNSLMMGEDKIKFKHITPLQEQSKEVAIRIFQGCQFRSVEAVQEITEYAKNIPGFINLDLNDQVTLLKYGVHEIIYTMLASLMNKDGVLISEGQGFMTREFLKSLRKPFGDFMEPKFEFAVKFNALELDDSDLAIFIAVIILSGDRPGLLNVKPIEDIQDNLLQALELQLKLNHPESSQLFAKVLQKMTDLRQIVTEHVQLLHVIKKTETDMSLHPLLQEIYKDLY
# These are yes or no findings as the source states them, for the method shown. Binding seen in cells or lysates may run through a third protein. Some results given as binding are weak or reduced against the parent protein; the word gives no strength.
# B1: Retinoid X receptor alpha (RXRA) (protein, UniProt Q05343 1-467)
# chain: MDTKHFLPLDFSTQVNSSSLSSPTGRGSMAAPSLHPSLGPGLGSPLGSPGQLHSPISTLSSPINGMGPPFSVISSPMGPHSMSVPTTPTLGFETGSPQLNSPMNPVSSSEDIKPPLGLNGVLKVPAHPSGNMSSFTKHICAICGDRSSGKHYGVYSCEGCKGFFKRTVRKDLTYTCRDNKDCLIDKRQRNRCQYCRYQKCLAMGMKREAVQEERQRGKDRNENEVESTSSANEDMPVEKILEAELAVEPKTETYVEANMGLNPSSPNDPVTNICQAADKQLFTLVEWAKRIPHFSELPLDDQVILLRAGWNELLIASFSHRSIAVKDGILLATGLHVHRNSAHSAGVGAIFDRVLTELVSKMRDMQMDKTELGCLRAIVLFNPDSKGLSNPAEVEALREKVYASLEAYCKHKYPEQPGRFAKLLLRLPALRSIGLKCLEHLFFFKLIGDTPIDTFLMEMLEAPHQTT
# Biological target: Peroxisome proliferative activated receptor, gamma (PPARG) (rat (endogenous in H9c2)) (UniProt O88275)
# Experiment: co-IP; H9c2 cell lysates incubated with 2 ug PPARG antibody overnight at 4 °C, protein A/G plus agarose beads 1 h at 4 °C, washed 4 times with lysis buffer, Western blot; cells with or without Miat overexpression
binder,measurement,value
B1,binding,binds
